Experimental data from US20160258940A1 (IMRA AMERICA, published 2016).
Results are given in words; binding and its absence hold for the method and conditions named. Some binding calls cover weakened binding; strength is not graded here.

Amino acid sequences for entries named in this document (tags omitted).
UniProt Q15149: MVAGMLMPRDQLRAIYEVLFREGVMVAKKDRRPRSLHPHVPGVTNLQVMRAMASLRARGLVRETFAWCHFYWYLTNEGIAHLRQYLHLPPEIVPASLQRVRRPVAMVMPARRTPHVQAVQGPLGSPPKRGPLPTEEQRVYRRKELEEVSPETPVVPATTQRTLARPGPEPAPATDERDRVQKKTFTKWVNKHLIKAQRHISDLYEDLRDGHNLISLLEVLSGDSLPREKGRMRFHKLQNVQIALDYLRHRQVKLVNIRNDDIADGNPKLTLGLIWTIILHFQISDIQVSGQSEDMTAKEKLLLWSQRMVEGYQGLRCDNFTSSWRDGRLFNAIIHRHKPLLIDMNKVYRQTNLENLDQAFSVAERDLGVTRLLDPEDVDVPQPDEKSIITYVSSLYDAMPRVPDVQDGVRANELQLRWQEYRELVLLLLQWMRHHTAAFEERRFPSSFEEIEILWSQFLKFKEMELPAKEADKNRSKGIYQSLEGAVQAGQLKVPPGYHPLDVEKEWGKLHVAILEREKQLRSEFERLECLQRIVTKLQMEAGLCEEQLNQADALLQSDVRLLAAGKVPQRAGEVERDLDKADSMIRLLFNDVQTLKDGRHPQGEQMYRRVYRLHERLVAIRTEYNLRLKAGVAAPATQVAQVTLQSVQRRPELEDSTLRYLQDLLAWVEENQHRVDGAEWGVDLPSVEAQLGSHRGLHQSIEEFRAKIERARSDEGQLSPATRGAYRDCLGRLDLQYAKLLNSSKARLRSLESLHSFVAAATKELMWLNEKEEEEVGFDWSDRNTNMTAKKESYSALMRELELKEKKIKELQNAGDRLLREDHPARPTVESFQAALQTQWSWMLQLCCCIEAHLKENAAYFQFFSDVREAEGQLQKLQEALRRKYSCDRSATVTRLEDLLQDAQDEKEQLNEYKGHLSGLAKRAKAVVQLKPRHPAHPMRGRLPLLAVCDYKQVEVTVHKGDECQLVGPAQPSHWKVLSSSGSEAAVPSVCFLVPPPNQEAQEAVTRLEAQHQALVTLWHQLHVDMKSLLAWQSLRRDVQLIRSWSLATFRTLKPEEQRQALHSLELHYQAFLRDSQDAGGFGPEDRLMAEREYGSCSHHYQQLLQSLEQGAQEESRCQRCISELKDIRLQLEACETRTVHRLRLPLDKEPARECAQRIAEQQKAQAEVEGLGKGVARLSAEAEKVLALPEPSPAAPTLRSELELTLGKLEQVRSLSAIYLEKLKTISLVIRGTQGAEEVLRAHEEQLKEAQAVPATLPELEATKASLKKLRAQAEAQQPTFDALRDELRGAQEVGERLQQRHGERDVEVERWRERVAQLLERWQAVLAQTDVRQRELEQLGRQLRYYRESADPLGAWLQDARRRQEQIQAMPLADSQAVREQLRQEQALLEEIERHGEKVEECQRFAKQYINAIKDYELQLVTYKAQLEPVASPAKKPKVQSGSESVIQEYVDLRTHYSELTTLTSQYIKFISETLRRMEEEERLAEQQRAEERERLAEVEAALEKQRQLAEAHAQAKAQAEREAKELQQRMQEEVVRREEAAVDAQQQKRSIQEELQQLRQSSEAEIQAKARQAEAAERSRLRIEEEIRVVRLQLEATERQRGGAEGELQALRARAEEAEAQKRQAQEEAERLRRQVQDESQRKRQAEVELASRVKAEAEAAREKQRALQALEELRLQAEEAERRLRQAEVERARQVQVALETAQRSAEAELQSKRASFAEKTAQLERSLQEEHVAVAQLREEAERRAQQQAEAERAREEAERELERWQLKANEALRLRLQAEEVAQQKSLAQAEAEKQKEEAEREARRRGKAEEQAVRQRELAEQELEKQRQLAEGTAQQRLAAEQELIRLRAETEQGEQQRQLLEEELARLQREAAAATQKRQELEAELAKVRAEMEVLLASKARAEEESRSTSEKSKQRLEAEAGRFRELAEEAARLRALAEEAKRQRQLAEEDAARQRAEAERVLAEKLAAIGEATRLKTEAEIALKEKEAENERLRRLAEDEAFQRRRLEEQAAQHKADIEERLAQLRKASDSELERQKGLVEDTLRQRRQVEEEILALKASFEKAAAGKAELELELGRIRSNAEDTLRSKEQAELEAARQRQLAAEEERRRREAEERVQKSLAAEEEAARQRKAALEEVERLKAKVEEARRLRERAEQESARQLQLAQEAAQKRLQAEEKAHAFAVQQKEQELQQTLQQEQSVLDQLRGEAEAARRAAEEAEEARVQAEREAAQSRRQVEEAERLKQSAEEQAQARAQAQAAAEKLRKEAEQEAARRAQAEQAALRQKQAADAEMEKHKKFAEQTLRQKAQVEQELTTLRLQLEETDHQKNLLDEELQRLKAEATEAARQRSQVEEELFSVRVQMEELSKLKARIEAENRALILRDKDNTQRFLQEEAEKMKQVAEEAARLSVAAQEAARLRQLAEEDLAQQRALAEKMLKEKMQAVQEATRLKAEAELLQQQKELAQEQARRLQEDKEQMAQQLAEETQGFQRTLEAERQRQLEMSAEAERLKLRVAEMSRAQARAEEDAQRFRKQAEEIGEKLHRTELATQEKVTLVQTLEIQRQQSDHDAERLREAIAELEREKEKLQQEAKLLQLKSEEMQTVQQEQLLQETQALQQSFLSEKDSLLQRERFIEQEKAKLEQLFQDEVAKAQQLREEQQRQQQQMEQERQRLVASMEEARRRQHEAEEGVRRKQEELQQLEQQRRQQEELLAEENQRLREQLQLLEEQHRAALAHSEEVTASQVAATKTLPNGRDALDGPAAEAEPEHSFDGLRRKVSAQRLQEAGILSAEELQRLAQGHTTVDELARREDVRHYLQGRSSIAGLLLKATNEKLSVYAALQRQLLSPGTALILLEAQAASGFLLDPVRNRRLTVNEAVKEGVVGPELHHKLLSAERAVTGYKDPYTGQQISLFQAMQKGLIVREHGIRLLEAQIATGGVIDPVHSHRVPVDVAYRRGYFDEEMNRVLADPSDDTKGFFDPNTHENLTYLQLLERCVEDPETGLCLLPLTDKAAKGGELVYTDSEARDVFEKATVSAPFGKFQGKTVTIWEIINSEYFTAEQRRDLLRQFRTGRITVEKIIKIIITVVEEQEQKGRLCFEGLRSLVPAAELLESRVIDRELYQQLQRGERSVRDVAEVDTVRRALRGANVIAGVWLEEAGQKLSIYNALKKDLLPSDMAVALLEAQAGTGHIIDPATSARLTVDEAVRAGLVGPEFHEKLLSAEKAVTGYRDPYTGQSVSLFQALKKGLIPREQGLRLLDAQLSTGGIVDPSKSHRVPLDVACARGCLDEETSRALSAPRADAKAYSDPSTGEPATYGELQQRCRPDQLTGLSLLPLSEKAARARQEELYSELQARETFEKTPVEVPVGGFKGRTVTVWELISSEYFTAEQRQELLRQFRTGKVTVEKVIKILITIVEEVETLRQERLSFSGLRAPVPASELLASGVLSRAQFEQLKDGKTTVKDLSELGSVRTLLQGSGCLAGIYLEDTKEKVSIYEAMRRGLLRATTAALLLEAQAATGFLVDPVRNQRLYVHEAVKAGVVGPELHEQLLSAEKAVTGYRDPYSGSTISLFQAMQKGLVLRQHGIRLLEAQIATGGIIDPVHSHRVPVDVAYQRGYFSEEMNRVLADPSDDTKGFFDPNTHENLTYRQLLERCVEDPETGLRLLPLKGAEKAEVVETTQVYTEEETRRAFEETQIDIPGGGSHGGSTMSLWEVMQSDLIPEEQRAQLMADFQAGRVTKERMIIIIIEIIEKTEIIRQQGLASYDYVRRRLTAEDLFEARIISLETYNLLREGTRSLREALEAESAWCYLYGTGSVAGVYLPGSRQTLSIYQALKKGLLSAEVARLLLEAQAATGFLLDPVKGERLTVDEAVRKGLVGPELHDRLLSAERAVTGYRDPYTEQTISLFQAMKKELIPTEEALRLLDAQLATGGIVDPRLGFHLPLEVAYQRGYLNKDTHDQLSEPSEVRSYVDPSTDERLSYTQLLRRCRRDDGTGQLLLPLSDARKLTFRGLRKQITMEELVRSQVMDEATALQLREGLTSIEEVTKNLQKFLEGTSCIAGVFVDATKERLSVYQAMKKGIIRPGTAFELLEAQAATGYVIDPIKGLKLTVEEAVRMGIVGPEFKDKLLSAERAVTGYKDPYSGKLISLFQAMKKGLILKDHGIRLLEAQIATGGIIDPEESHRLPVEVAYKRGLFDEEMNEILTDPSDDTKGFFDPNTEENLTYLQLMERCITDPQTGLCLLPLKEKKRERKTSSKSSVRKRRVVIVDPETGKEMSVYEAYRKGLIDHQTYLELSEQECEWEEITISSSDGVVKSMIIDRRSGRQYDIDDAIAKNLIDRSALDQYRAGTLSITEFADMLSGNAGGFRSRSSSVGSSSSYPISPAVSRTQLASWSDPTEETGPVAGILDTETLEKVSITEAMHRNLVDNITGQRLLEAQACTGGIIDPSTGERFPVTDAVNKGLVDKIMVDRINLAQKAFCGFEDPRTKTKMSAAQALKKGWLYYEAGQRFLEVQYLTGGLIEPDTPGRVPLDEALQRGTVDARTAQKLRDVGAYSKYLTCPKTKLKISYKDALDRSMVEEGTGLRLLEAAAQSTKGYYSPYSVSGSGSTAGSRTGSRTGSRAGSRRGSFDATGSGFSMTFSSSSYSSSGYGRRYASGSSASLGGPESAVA

Molecular target: Plectin on the cell surface of MIAPaCa2 cells (UniProt Q15149)
Assay: dark field microscopy of fixed MIAPaCa2 cells with 20 nM peptide-modified gold nanoparticles

binding	Binder
binds	KTLLPTPGGC (amidated at the C-terminal)
binds	KTLLPTP (amidated at the C-terminal)
